Results taken from the supplement of paper PMC12009310.
Where a name gives a salt, the structure may show the parent alone. ± gives the standard deviation of the averaged measurements. Some of the results follow. Baselines shift from plate to plate; read single values as rough.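 The cells are a mouse kidney inner medullary collecting duct line, silenced either for the ciliary gene Rpgrip1l or with a non-targeting control siRNA.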

Experiments:
[1] = test system: mIMCD3; assay: robust z score of cell number vs plate controls; higher = more cells (less cytotoxic); settings: 10 µM, 48 h
[2] = test system: mIMCD3; assay: robust z score of cilia incidence (% cells with single cilium) vs plate controls; higher = more ciliated cells; settings: 10 µM; 48 h; siRNA: siScr
[3] = test system: mIMCD3; assay: robust z score of cilia incidence (% cells with single cilium) vs plate controls; higher = more ciliated cells (rescue of cilia loss); settings: 10 µM; 48 h; siRNA: siRpgrip1l

Compound	robust z score of cell number ([1]; siRNA: siRpgrip1l)	robust z score of cell number ([1]; siRNA: siScr)	robust z score of cilia incidence [2]	robust z score of cilia incidence [3]
O=C1N(c2ccccc2)c2ccccc2C1(Cc1ccncc1)Cc1ccncc1 [Linopirdine dihydrochloride]	-6.12 ± 9.5	-5.17 ± 2.9	0.568 ± 2	-10.9 ± 5.2
CC#C[C@]1(O)CC[C@H]2[C@@H]3CCC4=CC(=O)CCC4=C3[C@@H](c3ccc(N(C)C)cc3)C[C@@]21C [Mifepristone]	-135 ± 140	-33.5 ± 8	-21.9 ± 7.3	-417 ± 290
COC(=O)C1=C(C)NC(C)=C(C(=O)NCCCN2CCC(c3ccccc3)(c3ccccc3)CC2)C1c1ccc([N+](=O)[O-])cc1 (stereo unspecified)	-29.8 ± 15	-27.3 ± 4.5	-50.5 ± 38	-35 ± 18
CN(C)[C@@H]1CCc2[nH]c3ccc(NC(=O)c4ccc(F)cc4)cc3c2C1	-28.6 ± 14	-27.5 ± 4.7	-52.1 ± 41	-32.4 ± 15
CC(C)c1ccc(C(=O)c2cccs2)c(SCCCCCCCCN(C)C)n1	-53 ± 51	-28.3 ± 23	-18.3 ± 12	-27.3 ± 16
CN1CCN(CCc2ccc(Cl)c(Cl)c2)CC1 [BD 1063 dihydrochloride]	-27.37 ± 0.21	-25.9 ± 14	-40.8 ± 8.6	-28.3 ± 5.6
C[N+](C)(C)CCCCCNCC12CC3CC(CC(C3)C1)C2	-16.8 ± 20	-3.24 ± 3.9	2.75 ± 0.7	-110 ± 120
C[C@H](NC[C@H](O)CP(=O)(O)Cc1ccccc1)c1ccc(Cl)c(Cl)c1	-16.1 ± 9.6	0.712 ± 0.73	0.6 ± 1.8	-9.14 ± 2.4
CC(C)SC(=N)N [S-Isopropylisothiourea hydrobromide]	-3.77 ± 3.8	-1.91 ± 3.5	-4.19 ± 1.9	-10.6 ± 2.5
O=C(O)C1=CCNCC1 [Isoguvacine hydrochloride]	4.77 ± 9.7	-0.736 ± 1.6	0.0342 ± 1.2	-9.11 ± 7.8
NC(=O)N/N=C/c1ccc(Oc2ccc(F)cc2)cc1	-5.35 ± 4.9	-33.5 ± 31	2.28 ± 5.5	-7.53 ± 1.9
Clc1cccc2c1CN(C1=NCCN1)C2	-1.61 ± 1	-0.98 ± 3.4	1.29 ± 0.74	-7.05 ± 2.2
CC(/C=C/c1cccc(Oc2ccc(F)cc2)c1)N(O)C(N)=O (stereo unspecified)	-151 ± 110	-18.1 ± 5	-2.91 ± 8.7	-16.1 ± 5.7
CN(Cc1ccccc1)C(=O)[C@H](Cc1ccc2ccccc2c1)NC(=O)[C@@H]1C[C@@H](O)CN1C(=O)c1cn(C)c2ccccc12	-20.3 ± 10	-14.4 ± 0.42	-7.11 ± 9.9	-18.4 ± 11
Nc1nnc(Sc2ncc([N+](=O)[O-])s2)s1	-43.8 ± 57	-5.87 ± 4.9	-1.25 ± 2.1	-8.11 ± 0.98
COC(=O)Nc1nc2cc(C(=O)c3cccs3)ccc2[nH]1 [Nocodazole]	-275 ± 190	-37.3 ± 8.9	-35.2 ± 10	-29.4 ± 11
COc1cc2c(CCNC(C)=O)c[nH]c2cc1Cl [6-Chloromelatonin]	7.32 ± 15	-1.62 ± 1.1	1.41 ± 0.071	-7.76 ± 5

Some values from above.
robust z score of cilia incidence [3] with CN1CCN(CCc2ccc(Cl)c(Cl)c2)CC1 [BD 1063 dihydrochloride] reads -28.3 ± 5.6
robust z score of cilia incidence [3] with COC(=O)C1=C(C)NC(C)=C(C(=O)NCCCN2CCC(c3ccccc3)(c3ccccc3)CC2)C1c1ccc([N+](=O)[O-])cc1 (stereo unspecified) reads -35 ± 18

The results go on:

Compound	robust z score of cell number ([1]; siRNA: siRpgrip1l)	robust z score of cell number ([1]; siRNA: siScr)	robust z score of cilia incidence [2]	robust z score of cilia incidence [3]
Cc1c(NC(=O)N2CCOCC2)ccc2c1c1ccccc1n2C(C)C	-14.9 ± 16	-1.5 ± 5.1	1.47 ± 1.8	-3.31 ± 0.2
N=C(N)NC(=N)Nc1ccccc1 [1-Phenylbiguanide hydrochloride]	-3.66 ± 1.3	-4.9 ± 3.2	0.401 ± 1.9	-8 ± 2.2
COC(=O)C1=C(C)NC(C)=C(C(=O)OCCSc2ccccc2)C1C (stereo unspecified)	-98.8 ± 76	-115 ± 99	-5.11 ± 1.6	-19.3 ± 1.5
COc1cc2ncnc(Nc3ccc(Cl)cc3F)c2cc1OC	-25.4 ± 7.5	-117 ± 88	-24.3 ± 1.5	-35.7 ± 6.5
O=C(O)c1cc(=O)c2ccccc2[nH]1 [Kynurenic acid]	6.69 ± 6.4	2.18 ± 6.4	0.608 ± 1.6	-5.69 ± 6
O=C(Cc1ccccc1)Nc1nc2ccc(Cl)cc2c2nc(-c3ccco3)nn12	-14.5 ± 8.5	-5.44 ± 1.3	4.01 ± 0.42	-7.21 ± 0.59
CN(C)c1nc(N)c(C(=O)Nc2cccnc2)nc1Cl [ACDPP hydrochloride]	-17.1 ± 9.7	-23 ± 22	-2.1 ± 0.88	-13 ± 9.9
O=c1oc(-c2ccc(C(F)(F)F)cc2)nn1Cc1cc(Cl)ccc1O	-12.5 ± 4.1	-51 ± 39	-5.35 ± 5.1	-18.2 ± 0.83
[O-][S+](c1ccccc1)c1ccc2nnnn2n1 (stereo unspecified)	-43.8 ± 40	-44.1 ± 29	-76.7 ± 60	-57.8 ± 46
CN(C)CCCC1(c2ccc(F)cc2)OCc2cc(C#N)ccc21 (stereo unspecified) [Citalopram hydrobromide]	-42.6 ± 58	-2.74 ± 6.2	0.929 ± 0.87	-5.8 ± 5
O=C(Nc1ccc([N+](=O)[O-])cc1O)Nc1ccccc1Br	-30.3 ± 29	-13.8 ± 12	-20.3 ± 8.2	-20.2 ± 4.8
N=C(CC(O)COc1ccccc1-c1ccccc1)N1CCCCC1 (stereo unspecified)	-23.3 ± 1.6	-24.1 ± 12	-22.1 ± 12	-20.7 ± 3.2
c1cnc(N2CCN(Cc3ccc4c(c3)OCO4)CC2)nc1 [Piribedil]	-14.2 ± 16	-0.339 ± 0.74	0.347 ± 3	-15.4 ± 1.1
CC1OC2(CS1)CN1CCC2CC1 (stereo unspecified) [Cevimeline hydrochloride]	-36.2 ± 27	-39.74 ± 0.37	-41.5 ± 12	-24.7 ± 10
N=C(N)S/C=C\C(=O)O [ZAPA sulphate]	-12.3 ± 17	-3.33 ± 8.8	1.12 ± 1.3	-11.6 ± 9.9
COC(=O)c1c(C)[nH]c(C)c1C(=O)c1ccccc1Cc1ccccc1	-91.4 ± 87	-8.88 ± 2.4	-0.511 ± 1.1	-12.1 ± 0.26
FC(F)(F)c1cccc(-c2noc(-c3cc(-c4ccccc4)c(C(F)(F)F)s3)n2)c1	-6.75 ± 1.5	-4.53 ± 0.43	-1.54 ± 4.8	-11.6 ± 7
